{
  "source": "paper PMC12024814",
  "about": "“Ruthenium(II)–Arene Complexes with a 2,2′-Bipyridine Ligand as Anti-Aβ Agents” (Biomolecules, 2025)",
  "key": {"[1]": {"test": "Average of rankings over all experimental methods", "conditions": "average of the ThT, DLS, TEM, HSA and cytotoxicity rankings (1 = best, 5 = worst)"}, "[2]": {"test": "Imidazole coordination by 1H NMR", "conditions": "equimolar imidazole, 37 °C, DMSO-D6/D2O; RuBtB in pure CDCl3"}},
  "data": [
    {"compound": "Cc1ccc(C(C)C)cc1.F[P-](F)(F)(F)(F)F.[Cl-].[Ru+2].c1ccc(-c2ccccn2)nc1", "note": "[RuB, [Ru(η^6-p-cymene)(2,2′-bipyridine)Cl]PF6]", "values": [
      {"measurement": "Ranking Average", "setting": "[1]", "result": 2.8}
    ]},
    {"compound": "Cc1ccc(C(C)C)cc1.Cc1ccnc(-c2cc(C)ccn2)c1.F[P-](F)(F)(F)(F)F.[Cl-].[Ru+2]", "note": "[RuBMe, [Ru(η^6-p-cymene)(4,4′-dimethyl-2,2′-bipyridine)Cl]PF6]", "values": [
      {"measurement": "Ranking Average", "setting": "[1]", "result": 3}
    ]},
    {"compound": "[Ru(η^6-p-cymene)(4,4′-di-tert-butyl-2,2′-bipyridine)Cl]PF6 [RuBtB]", "values": [
      {"measurement": "Ranking Average", "setting": "[1]", "result": 3.6},
      {"measurement": "1H NMR changes with imidazole (coordination)", "setting": "[2]", "result": "no changes were observed"}
    ]},
    {"compound": "[Ru(η^6-p-cymene)(4,4′-diamino-2,2′-bipyridine)Cl]PF6 [RuBA]", "values": [
      {"measurement": "Ranking Average", "setting": "[1]", "result": 2.4},
      {"measurement": "1H NMR changes with imidazole (coordination)", "setting": "[2]", "result": "new signals within the aromatic region"}
    ]},
    {"compound": "[Ru(η^6-p-cymene)(4,4′-dimethoxy-2,2′-bipyridine)Cl]PF6 [RuBMeO]", "values": [
      {"measurement": "Ranking Average", "setting": "[1]", "result": 3.2}
    ]}
  ]
}
